From PMC10880305
Results are given in words; binding and its absence hold for the method and conditions named. Binding seen in cells or lysates may run through a third protein. These calls come from enrichment with a bait or labelling near it, and not all partners need be listed. Each block holds one molecule with its values, some of them ahead of it.

Amino acid sequences for entries named in this document (tags omitted).
UniProt Q14677: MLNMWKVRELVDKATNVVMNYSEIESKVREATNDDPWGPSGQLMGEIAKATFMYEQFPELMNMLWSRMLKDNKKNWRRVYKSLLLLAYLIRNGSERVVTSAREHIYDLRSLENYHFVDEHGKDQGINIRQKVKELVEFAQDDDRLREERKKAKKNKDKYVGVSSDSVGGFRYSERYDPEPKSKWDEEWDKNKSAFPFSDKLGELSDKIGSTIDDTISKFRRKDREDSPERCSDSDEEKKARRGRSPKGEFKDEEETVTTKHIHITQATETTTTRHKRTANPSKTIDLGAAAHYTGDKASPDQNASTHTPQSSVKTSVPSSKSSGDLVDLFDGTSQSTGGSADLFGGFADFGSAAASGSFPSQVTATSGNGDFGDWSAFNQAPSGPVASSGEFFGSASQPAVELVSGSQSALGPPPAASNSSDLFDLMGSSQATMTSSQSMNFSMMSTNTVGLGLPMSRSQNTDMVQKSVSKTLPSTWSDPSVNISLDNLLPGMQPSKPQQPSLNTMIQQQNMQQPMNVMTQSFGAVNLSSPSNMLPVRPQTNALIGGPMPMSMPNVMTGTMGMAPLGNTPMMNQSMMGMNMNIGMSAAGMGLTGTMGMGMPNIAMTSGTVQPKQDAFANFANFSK

Target: T1, KDELR-BirA* (human) (UniProt P24390)
T1 sequence: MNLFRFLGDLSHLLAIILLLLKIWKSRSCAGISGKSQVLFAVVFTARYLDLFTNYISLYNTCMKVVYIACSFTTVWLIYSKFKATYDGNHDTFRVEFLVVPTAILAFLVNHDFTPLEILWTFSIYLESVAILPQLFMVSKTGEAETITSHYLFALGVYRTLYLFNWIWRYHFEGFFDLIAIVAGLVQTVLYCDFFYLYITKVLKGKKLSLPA
Assay: proximity labelling; BioID: HeLa transfected with KDELR-BirA* or KDELR-myc (control) for 24 h, 50 μM biotin for 6 h, streptavidin beads, mass spectrometry; data revisited from ref. 20

binding: binds
Molecule: clathrin interactor 1 (from UniProt Q14677 1-625)

binding: binds
B1: phosphatidylinositol binding clathrin assembly protein (protein, UniProt Q13492 1-652)
chain: MSGQSLTDRITAAQHSVTGSAVSKTVCKATTHEIMGPKKKHLDYLIQCTNEMNVNIPQLADSLFERTTNSSWVVVFKSLITTHHLMVYGNERFIQYLASRNTLFNLSNFLDKSGLQGYDMSTFIRRYSRYLNEKAVSYRQVAFDFTKVKRGADGVMRTMNTEKLLKTVPIIQNQMDALLDFNVNSNELTNGVINAAFMLLFKDAIRLFAAYNEGIINLLEKYFDMKKNQCKEGLDIYKKFLTRMTRISEFLKVAEQVGIDRGDIPDLSQAPSSLLDALEQHLASLEGKKIKDSTAASRATTLSNAVSSLASTGLSLTKVDEREKQAALEEEQARLKALKEQRLKELAKKPHTSLTTAASPVSTSAGGIMTAPAIDIFSTPSSSNSTSKLPNDLLDLQQPTFHPSVHPMSTASQVASTWGDPFSATVDAVDDAIPSLNPFLTKSSGDVHLSISSDVSTFTTRTPTHEMFVGFTPSPVAQPHPSAGLNVDFESVFGNKSTNVIVDSGGFDELGGLLKPTVASQNQNLPVAKLPPSKLVSDDLDSSLANLVGNLGIGNGTTKNDVNWSQPGEKKLTGGSNWQPKVAPTTAWNAATMAPPVMAYPATTPTGMIGYGIPPQMGSVPVMTQPTLIYSQPVMRPPNPFGPVSGAQIQFM
